Data source: PubChem BioAssay AID652259 (Drosophila RNAi Screening Center, 2013)
The deposit covers about 22,000 reagents; this is an unselected part of those that have a named target and a result. Of all reagents, 233 (1.1%) got an active call. 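Light values are raw, unnormalised plate reads; the ratio scores behind the reporter calls were not deposited.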 A plus sign joins genes that one reagent is predicted to hit. The record does not give: the amount of reagent, the time to read-out, the dose of the treatment.

Test: 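Knock-downs that push a Wingless-driven reporter up or down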 (primary screen)
Cell system: Drosophila clone 8 imaginal disc epithelial cells
Reagent: long dsRNA against Drosophila genes
Treatment: pathway stimulated by co-transfected Wingless expression plasmid
Detection: 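Firefly luciferase from a tcf-site Wingless reporter, measured alongside co-transfected Renilla luciferase that tracks transfection; pathway stimulated by a Wingless plasmid; the firefly-to-Renilla ratio is not deposited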
Direction: firefly reporter light: higher = more Wg reporter light, before normalisation; Renilla control light: higher = more transfected or surviving cells
Hit rule: 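a knock-down is a candidate when at least two out of four statistical tests show it departing from its plate mean; one test alone signals a weak candidate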
Calls: active = candidate regulator (raises or lowers reporter); inactive = not a candidate

target | DRSC id | firefly reporter light, replicate 1 | firefly reporter light, replicate 2 | Renilla control light, replicate 1 | Renilla control light, replicate 2 | Call
dpr9 | DRSC14534 | 8226 | – | 3187 | – | inactive
dpr9 | DRSC14985 | 17562 | – | 1908 | – | inactive
dpr9 | DRSC14986 | 19008 | – | 1610 | – | inactive
prtp | DRSC19804 | 4951 | 8843 | 1708 | 4646 | inactive
prtp | DRSC22494 | 7.15e5 | 6.39e5 | 2.76e5 | 1.60e5 | inactive
CG5910 | DRSC11786 | 9008 | – | 4355 | – | inactive
CG7920 | DRSC16346 | 4736 | 9096 | 2241 | 3680 | inactive
CG7920 | DRSC21594 | 6.37e5 | 6.55e5 | 2.07e5 | 2.00e5 | inactive
CG12607 | DRSC08287 | 1920 | 10824 | 1543 | 4693 | inactive
Sk2 | DRSC08556 | 3944 | – | 1081 | – | inactive
dar1 | DRSC08049 | 4613 | – | 1772 | – | inactive
dar1 | DRSC08233 | 7930 | – | 3169 | – | inactive
Uggt | DRSC11315 | 4224 | – | 2027 | – | inactive
Vps20 | DRSC04448 | 2261 | 8141 | 578 | 2391 | inactive
wge | DRSC15246 | 3353 | 6269 | 1954 | 2055 | inactive
wge | DRSC15672 | 16140 | – | 14471 | – | inactive
Tap42 | DRSC02967 | 1620 | 5324 | 865 | 2740 | inactive
apt | DRSC04671 | 5335 | – | 1611 | – | inactive
Hsp67Bc | DRSC11193 | 4816 | – | 1824 | – | inactive
HERC2 | DRSC20566 | 19200 | – | 11469 | – | inactive
CG17177 | DRSC10257 | 10614 | – | 4672 | – | inactive
Boh1 | DRSC14487 | 3360 | 7488 | 1408 | 2757 | inactive
CG5003 | DRSC15694 | 3223 | 4739 | 1325 | 1952 | inactive
CG10005 | DRSC14172 | 15872 | – | 3836 | – | inactive
obst-G | DRSC11103 | 5539 | – | 2370 | – | inactive
alphaKap4 | DRSC09823 | 2004 | 5920 | 1352 | 2843 | inactive
Rga + asRNA:ASTR | DRSC12364 | 18657 | – | 2660 | – | inactive
CG6432 | DRSC16039 | 3132 | 4050 | 1664 | 1312 | inactive
sut4 | DRSC07703 | 8317 | – | 3265 | – | inactive
qjt | DRSC10060 | 6074 | – | 2044 | – | inactive
CG15385 | DRSC00399 | 2596 | 5837 | 1057 | 2912 | inactive
PMP34 | DRSC21939 | 6.67e5 | 6.17e5 | 3.06e5 | 3.26e5 | inactive
LysRS | DRSC17824 | 1853 | 7504 | 544 | 2055 | inactive

Reprinted from the entries so far (12 entries):
target | DRSC id | firefly reporter light, replicate 1 | firefly reporter light, replicate 2 | Renilla control light, replicate 1 | Renilla control light, replicate 2 | Call
HERC2 | DRSC20566 | 19200 | – | 11469 | – | inactive
CG17177 | DRSC10257 | 10614 | – | 4672 | – | inactive
Boh1 | DRSC14487 | 3360 | 7488 | 1408 | 2757 | inactive
CG5003 | DRSC15694 | 3223 | 4739 | 1325 | 1952 | inactive
CG10005 | DRSC14172 | 15872 | – | 3836 | – | inactive
obst-G | DRSC11103 | 5539 | – | 2370 | – | inactive
alphaKap4 | DRSC09823 | 2004 | 5920 | 1352 | 2843 | inactive
Rga + asRNA:ASTR | DRSC12364 | 18657 | – | 2660 | – | inactive
CG6432 | DRSC16039 | 3132 | 4050 | 1664 | 1312 | inactive
sut4 | DRSC07703 | 8317 | – | 3265 | – | inactive
qjt | DRSC10060 | 6074 | – | 2044 | – | inactive
CG15385 | DRSC00399 | 2596 | 5837 | 1057 | 2912 | inactive

The results go on:
target | DRSC id | firefly reporter light, replicate 1 | firefly reporter light, replicate 2 | Renilla control light, replicate 1 | Renilla control light, replicate 2 | Call
su(w[a]) | DRSC18840 | 1241 | 4632 | 580 | 1202 | inactive
CG5386 | DRSC15788 | 36179 | – | 5895 | – | inactive
CG7059 | DRSC16187 | 35656 | – | 6626 | – | inactive
elav | DRSC18772 | 2458 | 5033 | 966 | 1971 | inactive
AstC | DRSC02403 | 2664 | 8988 | 970 | 4084 | inactive
Ocho | DRSC11239 | 6679 | – | 2840 | – | inactive
gzl | DRSC12517 | 5331 | – | 2928 | – | inactive
CG13130 (retired record) | DRSC02226 | 4930 | 14237 | 1420 | 3223 | inactive
l(3)04053 | DRSC11640 | 8179 | – | 3064 | – | inactive
CG15382 | DRSC00397 | 2563 | 3580 | 885 | 1648 | inactive
Vm26Aa | DRSC03472 | 2320 | 9653 | 795 | 2762 | inactive
side-VI | DRSC12828 | 3429 | – | 1542 | – | inactive
side-VI | DRSC12830 | 4224 | – | 1861 | – | inactive
side-VI | DRSC14920 | 18994 | – | 4768 | – | inactive
side-VI | DRSC15624 | 17661 | – | 3220 | – | inactive
Cpr100A | DRSC14465 | 9329 | – | 2816 | – | inactive
CG5177 | DRSC02824 | 16489 | – | 4721 | – | inactive
Npc1a | DRSC03378 | 2272 | 4576 | 896 | 2082 | inactive
sens | DRSC09263 | 2633 | – | 293 | – | inactive
Dref | DRSC03319 | 8340 | – | 579 | – | inactive
CG13051 | DRSC09932 | 11115 | – | 4867 | – | inactive
RpS30 | DRSC15119 | 8071 | – | 1527 | – | inactive
CG3942 | DRSC15525 | 14244 | – | 3840 | – | inactive
CR42532 | DRSC06713 | 7776 | – | 3210 | – | inactive
alpha-Est9 | DRSC12621 | 16732 | – | 3524 | – | inactive
Atg2 | DRSC08273 | 15413 | – | 4936 | – | inactive
CG31441 | DRSC15723 | 14245 | – | 4275 | – | inactive
CG18428 | DRSC15326 | 17235 | – | 13424 | – | inactive
CG13739 | DRSC06410 | 2560 | 4342 | 168 | 445 | inactive
CG33080 | DRSC18080 | 23618 | – | 10733 | – | inactive
CG33080 | DRSC18081 | 32608 | – | 12064 | – | inactive
CG33080 | DRSC18285 | 19408 | – | 9952 | – | inactive
Pebp1 | DRSC15354 | 37724 | – | 7668 | – | inactive
CG4907 | DRSC15673 | 20059 | – | 15328 | – | inactive
CG14572 | DRSC11733 | 16346 | – | 6013 | – | inactive
CG42327 | DRSC14936 | 22522 | – | 3045 | – | inactive
CG42327 | DRSC14937 | 24464 | – | 5366 | – | inactive
CG6661 + asRNA:CR42871 | DRSC10687 | 5719 | – | 2896 | – | inactive
Obp83ef | DRSC12268 | 19080 | – | 3767 | – | inactive
Adf1 | DRSC04941 | 19148 | – | 9835 | – | inactive
Adf1 | DRSC04963 | 9621 | – | 2424 | – | inactive
